# Some of the results follow.
# Key:
# Experiment in all cases: glycan array binding signal (z-score within array); higher = stronger binding
# Details in all cases: glycan notation: IUPAC condensed, linker removed
# [1] = biological target: Gal(b1-3)[Fuc(a1-4)]GlcNAc
# In short: (§1)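 Negative Z-scores can be read as non-binding. The Z-score is calculated within each array and then averaged across arrays of one protein sequence at different concentrations or buffers and across linkers. Arrays, 3228 in all, were curated from the Consortium for Functional Glycomics database and kept only where the protein sequence was available.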
# [2] = biological target: Gal(b1-3)[Fuc(a1-4)]GlcNAc(b1-2)Man
# In short: as §1
# [3] = biological target: Gal(b1-3)[Fuc(a1-4)]GlcNAc(b1-2)Man(a1-3)[Gal(b1-3)[Fuc(a1-4)]GlcNAc(b1-2)Man(a1-6)]Man(b1-4)GlcNAc(b1-4)GlcNAc
# In short: as §1
# [4] = biological target: Gal(b1-3)[Fuc(a1-4)]GlcNAc(b1-2)Man(a1-3)[Gal(b1-3)[Fuc(a1-4)]GlcNAc(b1-2)Man(a1-6)]Man(b1-4)GlcNAc(b1-4)[Fuc(a1-6)]GlcNAc
# In short: as §1
# [5] = biological target: Gal(b1-3)[Fuc(a1-4)]GlcNAc(b1-3)Gal(b1-3)[Fuc(a1-4)]GlcNAc
# In short: as §1
# [6] = biological target: Gal(b1-3)[Fuc(a1-4)]GlcNAc(b1-3)Gal(b1-4)GlcNAc
# In short: as §1
# [7] = biological target: Gal(b1-3)[Fuc(a1-4)]GlcNAc(b1-3)Gal(b1-4)[Fuc(a1-3)]GlcNAc
# In short: as §1
# [8] = biological target: Gal(b1-3)[Fuc(a1-4)]GlcNAc(b1-6)GalNAc
# In short: as §1
# [9] = biological target: Gal(b1-3)[GlcNAc(b1-6)]GalNAc
# In short: as §1
# [10] = biological target: Gal(b1-3)[Neu5Ac(a2-6)]GalNAc
# In short: as §1
# [11] = biological target: Gal(b1-3)[Neu5Ac(a2-6)]GlcNAc(b1-4)Gal(b1-4)Glc
# In short: as §1
# [12] = biological target: Gal(b1-3)[Neu5Ac(a2-6)]GlcNAc(b1-6)Gal(b1-4)Glc
# In short: as §1
# [13] = biological target: Gal(b1-3)[Neu5Ac(b2-6)]GalNAc
# In short: as §1
# Gal(b1-4)Gal = biological target: Gal(b1-4)Gal
# In short: as §1
# [14] = biological target: Gal(b1-4)GalNAc(a1-3)[Fuc(a1-2)]Gal(b1-4)GlcNAc
# In short: as §1
# [15] = biological target: Gal(b1-4)GalNAc(b1-3)[Fuc(a1-2)]Gal(b1-4)GlcNAc
# In short: as §1
# Gal(b1-4)Glc = biological target: Gal(b1-4)Glc
# In short: as §1
# Gal(b1-4)Glc6S = biological target: Gal(b1-4)Glc6S
# In short: as §1
# Gal(b1-4)GlcNAc = biological target: Gal(b1-4)GlcNAc
# In short: as §1
# [16] = biological target: Gal(b1-4)GlcNAc(a1-6)Gal(b1-4)GlcNAc
# In short: as §1
# Gal(b1-4)GlcNAc(b1-2)Man = biological target: Gal(b1-4)GlcNAc(b1-2)Man
# In short: as §1
# [17] = biological target: Gal(b1-4)GlcNAc(b1-2)Man(a1-3)Man(b1-4)GlcNAc(b1-4)GlcNAc
# In short: as §1
# [18] = biological target: Gal(b1-4)GlcNAc(b1-2)Man(a1-3)[Gal(b1-4)GlcNAc(b1-2)Man(a1-6)]Man(b1-4)GlcNAc(b1-4)GlcNAc
# In short: as §1
# [19] = biological target: Gal(b1-4)GlcNAc(b1-2)Man(a1-3)[Gal(b1-4)GlcNAc(b1-2)Man(a1-6)]Man(b1-4)GlcNAc(b1-4)[Fuc(a1-6)]GlcNAc
# In short: as §1
# [20] = biological target: Gal(b1-4)GlcNAc(b1-2)Man(a1-3)[Gal(b1-4)GlcNAc(b1-2)Man(a1-6)][Gal(b1-4)GlcNAc(b1-4)]Man(b1-4)GlcNAc(b1-4)[Fuc(a1-6)]GlcNAc
# In short: as §1
# [21] = biological target: Gal(b1-4)GlcNAc(b1-2)Man(a1-3)[Gal(b1-4)GlcNAc(b1-2)Man(a1-6)][GlcNAc(b1-4)]Man(b1-4)GlcNAc(b1-4)[Fuc(a1-6)]GlcNAc
# In short: as §1
# [22] = biological target: Gal(b1-4)GlcNAc(b1-2)Man(a1-3)[Gal(b1-4)GlcNAc(b1-2)][GlcNAc(b1-4)]Man(b1-4)GlcNAc(b1-4)GlcNAc
# In short: as §1
# [23] = biological target: Gal(b1-4)GlcNAc(b1-2)Man(a1-3)[GlcNAc(b1-2)Man(a1-6)]Man(b1-4)GlcNAc(b1-4)GlcNAc
# In short: as §1
# [24] = biological target: Gal(b1-4)GlcNAc(b1-2)Man(a1-3)[GlcNAc(b1-4)][Gal(b1-4)GlcNAc(b1-2)Man(a1-6)]Man(b1-4)GlcNAc(b1-4)GlcNAc
# In short: as §1
# [25] = biological target: Gal(b1-4)GlcNAc(b1-2)Man(a1-3)[Man(a1-6)]Man(b1-4)GlcNAc(b1-4)GlcNAc
# In short: as §1
# [26] = biological target: Gal(b1-4)GlcNAc(b1-2)Man(a1-6)Man(b1-4)GlcNAc(b1-4)GlcNAc
# In short: as §1
# [27] = biological target: Gal(b1-4)GlcNAc(b1-2)Man(a1-6)[GlcNAc(b1-2)Man(a1-3)]Man(b1-4)GlcNAc(b1-4)GlcNAc
# In short: as §1
# [28] = biological target: Gal(b1-4)GlcNAc(b1-2)Man(a1-6)[Man(a1-3)]Man(b1-4)GlcNAc(b1-4)GlcNAc
# In short: as §1
# [29] = biological target: Gal(b1-4)GlcNAc(b1-2)[Gal(b1-4)GlcNAc(b1-4)]Man(a1-3)[Gal(b1-4)GlcNAc(b1-2)Man(a1-6)]Man(b1-4)GlcNAc(b1-4)GlcNAc
# In short: as §1
# [30] = biological target: Gal(b1-4)GlcNAc(b1-2)[Gal(b1-4)GlcNAc(b1-4)]Man(a1-3)[Gal(b1-4)GlcNAc(b1-2)[Gal(b1-4)GlcNAc(b1-6)]Man(a1-6)]Man(b1-4)GlcNAc(b1-4)GlcNAc
# In short: as §1
# [31] = biological target: Gal(b1-4)GlcNAc(b1-2)[Gal(b1-4)GlcNAc(b1-4)]Man(a1-3)[GlcNAc(b1-4)][Gal(b1-4)GlcNAc(b1-2)Man(a1-6)]Man(b1-4)GlcNAc(b1-4)GlcNAc
# In short: as §1
# [32] = biological target: Gal(b1-4)GlcNAc(b1-2)[Gal(b1-4)GlcNAc(b1-4)]Man(a1-3)[GlcNAc(b1-4)][Gal(b1-4)GlcNAc(b1-2)[Gal(b1-4)GlcNAc(b1-6)]Man(a1-6)]Man(b1-4)GlcNAc(b1-4)GlcNAc
# In short: as §1
# [33] = biological target: Gal(b1-4)GlcNAc(b1-2)[Gal(b1-4)GlcNAc(b1-6)]Man(a1-6)[Gal(b1-4)GlcNAc(b1-2)Man(a1-3)]Man(b1-4)GlcNAc(b1-4)GlcNAc
# In short: as §1
binder,measurement,setting,value
"Gal 12 (Homo sapiens), Q96DT0 (protein) MSQPSGGRAPGTRIYSWSCPTVMSPGEKLDPIPDSFILQPPVFHPVVPYVTTIFGGLHAGKMVMLQGVVPLDAHRFQVDFQCGCSLCPRPDIAFHFNPRFHTTKPHVICNTLHGGRWQREARWPHLALRRGSSFLILFLFGNEEVKVSVNGQHFLHFRYRLPLSHVDTLGIFGDILVEAVGFLNINPFVEGSREYPAGHPFLLMSPRLEVPCSHALPQGLSPGQVIIVRGLVLQEPKHFTVSLRDQAAHAPVTLRASFADRTLAWISRWGQKKLISAPFLFYPQRFFEVLLLFQEGGLKLALNGQGLGATSMNQQALEQLRELRISGSVQLYCVHS",glycan array binding signal (z-score),[1],0.051
same,glycan array binding signal (z-score),[2],-0.47
same,glycan array binding signal (z-score),[3],-0.186
same,glycan array binding signal (z-score),[4],-0.591
same,glycan array binding signal (z-score),[5],-0.224
same,glycan array binding signal (z-score),[6],1.19
same,glycan array binding signal (z-score),[7],-0.423
same,glycan array binding signal (z-score),[8],-1.1
same,glycan array binding signal (z-score),[9],-0.067
same,glycan array binding signal (z-score),[10],-0.049
same,glycan array binding signal (z-score),[11],1.14
same,glycan array binding signal (z-score),[12],0.922
same,glycan array binding signal (z-score),[13],-0.015
same,glycan array binding signal (z-score),Gal(b1-4)Gal,0.011
same,glycan array binding signal (z-score),[14],-0.722
same,glycan array binding signal (z-score),[15],1
same,glycan array binding signal (z-score),Gal(b1-4)Glc,-0.083
same,glycan array binding signal (z-score),Gal(b1-4)Glc6S,-0.209
same,glycan array binding signal (z-score),Gal(b1-4)GlcNAc,-0.477
same,glycan array binding signal (z-score),[16],-0.194
same,glycan array binding signal (z-score),Gal(b1-4)GlcNAc(b1-2)Man,-0.021
same,glycan array binding signal (z-score),[17],0.045
same,glycan array binding signal (z-score),[18],0.053
same,glycan array binding signal (z-score),[19],0.053
same,glycan array binding signal (z-score),[20],0.096
same,glycan array binding signal (z-score),[21],-0.028
same,glycan array binding signal (z-score),[22],-0.532
same,glycan array binding signal (z-score),[23],-0.341
same,glycan array binding signal (z-score),[24],-0.72
same,glycan array binding signal (z-score),[25],-0.648
same,glycan array binding signal (z-score),[26],0.391
same,glycan array binding signal (z-score),[27],-0.247
same,glycan array binding signal (z-score),[28],-0.571
same,glycan array binding signal (z-score),[29],0.86
same,glycan array binding signal (z-score),[30],-0.888
same,glycan array binding signal (z-score),[31],-0.457
same,glycan array binding signal (z-score),[32],-0.282
same,glycan array binding signal (z-score),[33],-0.529

# Reformatted with bars between the fields: part of the list above.
binder | measurement | setting | value
Gal 12 (Homo sapiens), Q96DT0 (protein) MSQPSGGRAPGTRIYSWSCPTVMSPGEKLDPIPDSFILQPPVFHPVVPYVTTIFGGLHAGKMVMLQGVVPLDAHRFQVDFQCGCSLCPRPDIAFHFNPRFHTTKPHVICNTLHGGRWQREARWPHLALRRGSSFLILFLFGNEEVKVSVNGQHFLHFRYRLPLSHVDTLGIFGDILVEAVGFLNINPFVEGSREYPAGHPFLLMSPRLEVPCSHALPQGLSPGQVIIVRGLVLQEPKHFTVSLRDQAAHAPVTLRASFADRTLAWISRWGQKKLISAPFLFYPQRFFEVLLLFQEGGLKLALNGQGLGATSMNQQALEQLRELRISGSVQLYCVHS | glycan array binding signal (z-score) | [6] | 1.19
same | glycan array binding signal (z-score) | [7] | -0.423

# From the supplement of paper PMC8728848
